Experimental data: the supplement of paper PMC11237882
This is one part of the list. Values are worked out from sequencing counts and are noisy.

Target: T1, Homer1 EVH1 domain
T1 chain: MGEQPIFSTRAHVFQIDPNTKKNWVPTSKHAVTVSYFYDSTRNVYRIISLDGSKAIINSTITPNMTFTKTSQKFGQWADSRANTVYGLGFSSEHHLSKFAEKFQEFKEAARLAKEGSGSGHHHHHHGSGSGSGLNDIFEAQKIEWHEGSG
Assay: enrichment score (AUC of log2 frequency ratio across FACS sorting rounds) (log2 AUC); higher = stronger enrichment for Homer1 EVH1 binding

Binder	enrichment score
MAAALQVLPRLARAPLHPLLWRGSVARLASSMALAE	1.82
RIAYILPANESFGPLQISLGRTVKDIFKFMVLFIMV	-0.148
FLVSGLFSIISSIPFFFLPQTPNRPQKERKASLSLH	-0.722
TQDKSIGRPCRSLLSADWLRLGKRQKRPASRAGAAR	0.654
MLLVPFSLILSSYGLILAAVLHMRSTEARKKAFATC	3.6
DKNIISYYFCATQLAFFLVFIGSELFILSAMSYDLY	1.28
LSWIFAWSLIIPFSCFPKHLPGTAEIQAGKTSQAHQ	-2.16
ISNFLLFISVVSFLTYSIWASSCKNKAECNELHPSV	3.08
AIFWTTISYLAISATIGSCVVRDASGVPNDTVTPGW	2.13
LCVVMVCILLYTTYPLLKESALILLQTVPKQIDIRN	-0.0254
CIGANLGHCAPASSAGSLAAGPLLLALALYPLSVLF	1.41
KTCSRPIRIGLSRKARIKQLHPYLKQMCYGNLKENF	0.368
CSIVMLLFLCSFSWLIFIFLQLETAKEPCMAKFGPL	0.609
NFNEAKFIGFTMYTTCIIWLALLPIFYVTSSDYRVH	4.43
MTQPVPRLSVPAALALGSAALGAAFATGLFLGRRCP	0.469
PSTSFLEKFKHISANHTLGFILFSWVLNMFITNNLL	2.37
TLYGPGAVIDGVNSASRALACLWLSGTLLAHFFIKF	0.415
MFLSTYLVTIIGNALIILAIITDSHLHTPMYFFLFN	-0.635
GLDSIMGNKDLWPLLLSIIFIPALLQCICCRSARTR	3.78
PQTGAGEAPPAAEVSSSFVILCVCSLIILIVLIANC	-0.404
SKYLSHDVVVMTVKLCILFAVLLTVPLIHFPARKAV	2.18
FLCNFSAADGGLRASVTLLGAGLLLSLLPALLRFGP	-0.981

Binder	enrichment score
AMAYDRYVAICNPLLYMVTMSPQVCFLLLLGVYGMG	-2.58
KNPNLPLAAIIGGAVALVTIALLALVCWYVHRNGSL	0.628
RKVDREDKLDIPMFFGFVGLFNLLLLWPGFFLLHYT	0.325
MLPQQVGFVCAVLALVCCASGLFGSLGHKTASASKR	0.788
AGGRIWERLFHGPTSSLIPRRSVKLKMPTAFVSGPR	0.201
TANWRMLLRILPQSFGFIVPLLIMLFCYGFTLRTLF	-1.23
MLARALLLCAVLALSHTANPCCSHPCQNRGVCMSVG	0.818
HLPSVLAMIHVKRCTPIPALLFTCISTLLMLVTSDI	3.97
NMFSICSAVMVMALLAVVGLFTVVRHDAELRVPSPI	4.68
FSTIPEHTKLASSCLLILEFVMIVVFGLEFIIRIWS	-0.871
MLLLARCLLLVLVSSLLVCSGLACGPGRGFGKRRHP	0.271
LRSSQRLQKRHQHLESESRTLAAKMAALASMAHGMA	1.49
LLGILALVLLPVILLPFYYTGVGVLITEVAEDSPAI	1.27
LLSHGAKEDFHPPAEDWKPQSSHWGAALKDLHRIYR	1.44
YTLVSKLNLTNDGNLSNDWDFPRNGLLMPLLGVIFL	-2.28
TVTFGVITSIVTWGLAVLAALPEFIFYETEELFEET	-0.0353
MTIHQFLLLFLFWVCLPHFCSPEIMFRRTPVPQQRI	2.83
LKSHQFFQSTWDTVAFIVFLTFMGTVLLLLLLVVAH	0.391
QFATAYQGTRARSDNTHYWLIISCSIAYVALVTLRI	2.22
IIFLLIFIIINWAAVKAFWGAKASTPEVQSDQSSVR	1.81
SGLLSLSCFLLLLISYTVILLAIRQRAAGSTSKALS	2.7
ILVPSAILAAFLLIWSVKCCRAQLEARRSRHPADGA	2.12
